No constants are given. Whether binding was seen depends on the method and setting. Some binding calls cover weakened binding; strength is not graded here.
Molecular target: 重组4-1BB-huIgG1 Fc融合蛋白 (human) (UniProt Q07011)
Assay: ELISA, coated 4-1BB-huIgG1 Fc 100 ng/well, biotinylated ligand from 50 ng/well, HRP-streptavidin

Chains of the proteins cited; added tags and fusions are not shown. Residues count along the entry.
UniProt Q07011, residues 24-186: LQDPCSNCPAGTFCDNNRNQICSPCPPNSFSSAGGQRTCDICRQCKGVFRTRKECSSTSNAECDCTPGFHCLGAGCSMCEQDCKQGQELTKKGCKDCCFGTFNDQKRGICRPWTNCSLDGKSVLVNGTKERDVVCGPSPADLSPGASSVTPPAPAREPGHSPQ
UniProt P41273, residues 71-254: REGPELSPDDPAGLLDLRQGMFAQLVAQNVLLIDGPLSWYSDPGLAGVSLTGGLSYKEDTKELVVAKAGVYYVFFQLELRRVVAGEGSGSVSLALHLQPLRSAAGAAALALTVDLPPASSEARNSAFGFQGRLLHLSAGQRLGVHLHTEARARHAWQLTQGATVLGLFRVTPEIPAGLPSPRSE

Substance: Biotinylated Human 4-1BB Ligand (from UniProt P41273 71-254)
- binding: binds

From patent CN115850477A
